The results in this text go back to publication PMC10190533, “Engineering Escherichia coli to Utilize Erythritol as Sole Carbon Source” (Advanced Science, 2022).

Protein sequences can lack the tags named with them.

For this data set, the target named is T1, EryD (Ochrobactrum spp. (isolated strain)) (UniProt A6X312).
T1 sequence (looked up, limits assumed): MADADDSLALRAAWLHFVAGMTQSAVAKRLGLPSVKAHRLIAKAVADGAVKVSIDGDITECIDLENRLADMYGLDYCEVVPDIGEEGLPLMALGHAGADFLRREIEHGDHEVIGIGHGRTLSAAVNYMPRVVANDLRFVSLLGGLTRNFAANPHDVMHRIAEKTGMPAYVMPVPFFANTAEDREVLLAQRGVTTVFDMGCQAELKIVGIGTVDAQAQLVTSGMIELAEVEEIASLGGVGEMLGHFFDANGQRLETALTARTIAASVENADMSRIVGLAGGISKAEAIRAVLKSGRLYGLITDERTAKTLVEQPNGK
Nature of the data set: EMSA. To be noted: 200 nM DNA, EryD titration; 10 mM Tris-HCl pH 7.5, 1 mM EDTA, 100 mM NaCl, 0.1 mM DTT, 10 ug/mL BSA, 5% glycerol; 30 min, room temperature; 7.5% PAGE in 1x TAE; recombinant protein; label: 5' FAM. On the technique in general: A gel shift assay detects complexes by their altered migration in electrophoresis.

For “TATCAAACGCCTTCAGCAATTCTGCCGTATTGTCGTTATGGAAACGGATGATGCGGCTGAATTAGACCGCCCGGAGATTACCCTCGACCATTGTCATCACGCTTACCGGATAGGCAAAAGCCTCCGCCAAAGCGGTGCAGGACGCGACAGACGAGATCATGATAGCCTCCACATGAATTCCAGGGCCCCGCTCCTCCGTGCATCCTGGAAACAGATGCGCCGCAATCAAAACCTATGATAGCGGCGTGTTATTAACTCCAATAATGATGTTATAAAGCTCGAAAGCTGTCAATCGGATGTTTTCGAAACACCGGTGAAATAGCACAATTTCGCGCCGAATCTCGATCACGATCTAGAGAAATCCACTACATAATTCGTTATCAATCGCACTATTCACAGCACCGTCTTTTCTCGCAAAGCCAGCCACAAAGATACTCACAAACTTCTATATTTTCTTTTATTTTCAATGAATTAAACATATTTAAAACCGAAGAAACATTAAGCTATTGATGGAAAACAGTGGGAAAACCGCACTCGAAGGCGCGGAGATTTCCCCTACATTCACTCTTTGGTGAAAAAAAATGCGCCATCTAGAAAATTTTACAGACAACGTGATAGCGTTATGTTATCTCCAGCATACGCCATCGCCCGATTTCATTATAAACAGGGCTGCGAGCGACGTATTTTCGGTCGCGGGAGGAATCCAAATGTCAATGAAAGCACATAGCCGCC (double strand) [pEryF-732 (eryE-eryA intergenic region)]”, the binding result is given as “binds”.
